Assay results: article PMC10195082
No constants are given. Whether binding was seen depends on the method and setting. Binding seen in cells or lysates may run through a third protein. Some results given as binding are weak or reduced against the parent protein; the word gives no strength.

Protein sequences, listed by entry. Tags and fused reporters are not part of them. Lines headed by an entry give the natural chain unless they say otherwise; changes in a name come on top. Residues count along the entry.
3xFLAG-NLS-DUX4-CTD (DUX4 aa154-424) (Q9UBX2, residues 154-424): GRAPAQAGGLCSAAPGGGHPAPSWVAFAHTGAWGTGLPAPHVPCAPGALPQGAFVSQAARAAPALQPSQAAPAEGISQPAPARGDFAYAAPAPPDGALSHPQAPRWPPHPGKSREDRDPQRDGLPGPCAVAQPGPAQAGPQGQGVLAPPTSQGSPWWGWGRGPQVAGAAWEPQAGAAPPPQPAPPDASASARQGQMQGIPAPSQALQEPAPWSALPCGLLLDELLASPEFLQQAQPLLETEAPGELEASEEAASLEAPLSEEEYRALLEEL
3xFLAG-NLS-DUX4aa154-372 (Q9UBX2, residues 154-372): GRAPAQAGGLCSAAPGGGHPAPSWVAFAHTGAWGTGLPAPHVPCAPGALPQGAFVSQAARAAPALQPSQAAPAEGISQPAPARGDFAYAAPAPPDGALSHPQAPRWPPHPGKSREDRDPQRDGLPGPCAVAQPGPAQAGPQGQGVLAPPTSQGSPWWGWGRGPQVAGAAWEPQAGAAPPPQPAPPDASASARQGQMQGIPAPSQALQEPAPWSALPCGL
UniProt P42224: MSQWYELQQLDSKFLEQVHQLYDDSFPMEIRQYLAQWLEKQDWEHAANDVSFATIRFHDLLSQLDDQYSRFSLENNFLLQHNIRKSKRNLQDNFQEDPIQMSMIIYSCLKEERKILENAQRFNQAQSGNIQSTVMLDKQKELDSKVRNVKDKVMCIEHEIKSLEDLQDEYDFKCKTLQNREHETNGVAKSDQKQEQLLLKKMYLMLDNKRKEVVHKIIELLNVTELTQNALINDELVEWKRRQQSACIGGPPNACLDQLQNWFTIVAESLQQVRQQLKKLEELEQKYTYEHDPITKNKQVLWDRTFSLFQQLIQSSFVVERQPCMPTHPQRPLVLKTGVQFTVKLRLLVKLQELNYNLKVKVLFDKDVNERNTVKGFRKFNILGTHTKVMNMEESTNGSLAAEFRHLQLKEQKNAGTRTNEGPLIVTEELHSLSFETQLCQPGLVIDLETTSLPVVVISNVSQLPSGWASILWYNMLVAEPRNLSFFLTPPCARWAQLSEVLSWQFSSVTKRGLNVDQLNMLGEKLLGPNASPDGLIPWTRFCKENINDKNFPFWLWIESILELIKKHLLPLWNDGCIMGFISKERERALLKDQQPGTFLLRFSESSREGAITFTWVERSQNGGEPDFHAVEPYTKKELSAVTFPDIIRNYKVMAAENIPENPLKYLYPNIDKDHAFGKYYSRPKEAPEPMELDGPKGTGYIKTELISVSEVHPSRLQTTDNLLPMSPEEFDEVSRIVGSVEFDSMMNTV
UniProt O00571: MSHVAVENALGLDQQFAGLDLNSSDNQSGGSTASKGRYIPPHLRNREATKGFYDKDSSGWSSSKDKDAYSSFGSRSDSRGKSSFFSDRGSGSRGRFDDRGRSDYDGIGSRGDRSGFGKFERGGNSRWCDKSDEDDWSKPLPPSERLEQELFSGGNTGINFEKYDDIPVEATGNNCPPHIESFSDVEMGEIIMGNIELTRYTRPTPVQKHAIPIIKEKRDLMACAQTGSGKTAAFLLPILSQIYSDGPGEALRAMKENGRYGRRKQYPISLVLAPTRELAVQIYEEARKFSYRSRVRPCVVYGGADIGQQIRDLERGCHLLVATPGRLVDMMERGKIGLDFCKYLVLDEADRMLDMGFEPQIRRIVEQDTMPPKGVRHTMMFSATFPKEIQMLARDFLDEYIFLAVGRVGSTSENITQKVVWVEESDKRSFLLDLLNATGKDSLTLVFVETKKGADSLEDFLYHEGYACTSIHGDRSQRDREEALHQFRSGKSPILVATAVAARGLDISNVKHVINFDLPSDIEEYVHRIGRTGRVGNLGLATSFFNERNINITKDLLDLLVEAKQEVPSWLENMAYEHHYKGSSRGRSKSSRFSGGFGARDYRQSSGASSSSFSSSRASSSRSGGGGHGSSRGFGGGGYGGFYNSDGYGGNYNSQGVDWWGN

Legend:
[1] = target: 3xFLAG-NLS-DUX4-CTD (DUX4 aa154-424) (human) (UniProt Q9UBX2); assay: co-IP; anti-FLAG [M2] on Protein G Dynabeads, nuclear extract in IP buffer pH 7.4 (25 mM Tris-HCl pH 7.5, 175 mM NaCl, 1 mM EDTA, 0.2% NP-40, 5% glycerol), 3 hr at 4°C; Western blot; MB135 cells induced with doxycycline, ± IFNγ
[2] = target: 3xFLAG-NLS-DUX4-CTD (DUX4 aa154-424) (human) (UniProt Q9UBX2); assay: proximity ligation; fixed MB135 cells treated with doxycycline and IFNγ; mouse anti-FLAG [M2] with rabbit anti-STAT1 or rabbit anti-pSTAT1 Y701; Duolink; nuclear mean fluorescent intensity
[3] = target: 3xFLAG-NLS-DUX4aa154-372 (human) (UniProt Q9UBX2); assay: co-IP; anti-FLAG [M2] on Protein G Dynabeads, nuclear extract in IP buffer pH 7.4 (25 mM Tris-HCl pH 7.5, 175 mM NaCl, 1 mM EDTA, 0.2% NP-40, 5% glycerol), 3 hr at 4°C; Western blot; MB135 cells induced with doxycycline, ± IFNγ
[4] = target: 3XFLAG-NLS-DUX4CTD, constitutive, in primary human foreskin fibroblasts (human) (UniProt Q9UBX2); assay: proximity ligation; fixed primary human foreskin fibroblasts with constitutive FLAG-tagged transgene, treated with IFNγ; mouse anti-FLAG [M2] with rabbit anti-STAT1; Duolink; mean fluorescent intensity of transgene-positive nuclei
[5] = target: 3xFLAG-NLS-DUX4-CTD (DUX4 aa154-424) (human) (UniProt Q9UBX2); assay: co-IP; anti-FLAG [M2] on Protein G Dynabeads, nuclear extract in IP buffer pH 7.4 (25 mM Tris-HCl pH 7.5, 175 mM NaCl, 1 mM EDTA, 0.2% NP-40, 5% glycerol), 3 hr at 4°C; Western blot; MB135 cells induced with doxycycline, ± IFNγ; remark: listed apart in the source

binding [1]	Molecule	further results
binds	3xMYC-STAT1 (wild type) (from UniProt P42224 1-750)	
binds	PRKDC (endogenous) (from UniProt P78527 1-4128)	
binds	STAT1 (endogenous, total, MB135 cells) (from UniProt P42224 1-750)	binding [2]: binds; binding [3]: binds
binds	STAT1 phosphorylated at Y701 (endogenous, MB135 cells) (from UniProt P42224 1-750)	binding [2]: binds

Continued, molecule first:

Molecule	binding [1]	further results
3xMYC-STAT1-S727A (from UniProt P42224 1-750)	binds	
DDX3X (endogenous) (from UniProt O00571 1-662)	binds	
PABPC1 (endogenous) (from UniProt P11940 1-636)	binds	
STAT1 (endogenous, total, primary human foreskin fibroblasts) (from UniProt P42224 1-750)		binding [4]: binds
STAT1 phosphorylated at S727 (endogenous, MB135 cells) (from UniProt P42224 1-750)	binds	
YBX1 (endogenous) (from UniProt P67809 1-324)	binds	
HNRNPM (endogenous) (protein, UniProt P52272 1-730) MAAGVEAAAEVAATEIKMEEESGAPGVPSGNGAPGPKGEGERPAQNEKRKEKNIKRGGNRFEPYANPTKRYRAFITNIPFDVKWQSLKDLVKEKVGEVTYVELLMDAEGKSRGCAVVEFKMEESMKKAAEVLNKHSLSGRPLKVKEDPDGEHARRAMQKVMATTGGMGMGPGGPGMITIPPSILNNPNIPNEIIHALQAGRLGSTVFVANLDYKVGWKKLKEVFSMAGVVVRADILEDKDGKSRGIGTVTFEQSIEAVQAISMFNGQLLFDRPMHVKMDERALPKGDFFPPERPQQLPHGLGGIGMGLGPGGQPIDANHLNKGIGMGNIGPAGMGMEGIGFGINKMGGMEGPFGGGMENMGRFGSGMNMGRINEILSNALKRGEIIAKQGGGGGGGSVPGIERMGPGIDRLGGAGMERMGAGLGHGMDRVGSEIERMGLVMDRMGSVERMGSGIERMGPLGLDHMASSIERMGQTMERIGSGVERMGAGMGFGLERMAAPIDRVGQTIERMGSGVERMGPAIERMGLSMERMVPAGMGAGLERMGPVMDRMATGLERMGANNLERMGLERMGANSLERMGLERMGANSLERMGPAMGPALGAGIERMGLAMGGGGGASFDRAIEMERGNFGGSFAGSFGGAGGHAPGVARKACQIFVRNLPFDFTWKMLKDKFNECGHVLYADIKMENGKSKGCGVVKFESPEVAERACRMMNGMKLSGREIDVRIDRNA		binding [5]: binds
